Results as given in patent publication US12433936B2 (Nanjing Hanxin Pharmaceutical Technology Co., Ltd., priority 2021, dated 2025).
Plain letter strings leave the end groups untold.

Experiment: general procedure: Fmoc solid-phase peptide synthesis; 2-triphenylmethylchloromethane resin (preferred), substitution 0.1-1.0 mmol/g
Details: whole synthesis, acetate

Q: What does the source list for “SYSMEHFRWGKPVGKKRRPVKVYPDGAEDESAEAFPLEF (deamidated at N25; N-25 deamidated human ACTH or analogue)”?
A: final HPLC purity (HPLC, scale of the general procedure at least about 250 g/batch): 99.58%; isolated mass: 255 g; isolated yield (molar yield, scale of the general procedure at least about 250 g/batch): 63%
